# Test system: T. cruzi Querétaro strain epimastigotes
# Experiment: Thiol metabolites (Cys, GSH, T(SH)2) in epimastigotes by HPLC
# Type: cell-based, Trypanosoma cruzi
# Details: 1 µM drug alone, 24 h
# Protocol: Since thiol metabolite determination requires high amounts of biological material, the thiol determination content was performed in epimastigotes of the Queretaro strain. A 0.2 L culture of LIT medium was inoculated with epimastigotes at a density of 0.7 × 10^6 parasites/mL. The culture was incubated for 72 h at 28 °C, reaching, at the exponential growth phase, a concentration of 3 × 10^6 parasites/mL. The culture was separated into 8 aliquots of 25 mL, and 1 µM BNZ was added alone or in combination with 1 µM of the antidiabetic drugs. The cultures were incubated for 24 h at 28 °C. Subsequently, 1 mL of each sample was separated for protein determination, and the rest was used for thiol determination. Both samples were centrifuged at 20,817× g for 10 min; the pellets were washed twice with PBS. The pellets for protein were resuspended in 100 µL of Lowry’s solution A (2% Na2CO3, 0.4% NaOH, 0.16% Na-K tartrate, 1% SDS) and stored at −70 °C until protein determination using the Lowry method. The parasite pellets for thiol metabolite determination were immediately lysed by incubation in liquid nitrogen and stored at −70 °C.
# Thiol determination was performed as described before. […] The thiol metabolites were post-column derivatized with 0.1 mM di-thio-bis nitrobenzoic acid (DTNB), and the absorbance was detected at 412 nm with a UV-Vis detector coupled to the HPLC apparatus.
structure (smiles),measurement,value
"Cc1cnc(C(=O)NCCc2ccc(S(=O)(=O)NC(=O)NC3CCCCC3)cc2)cn1 [GPZ, glipizide]",GSH level,decreased
same,decrease in GSH,~50%
